{
  "source": "patent US20230113836A1",
  "about": "(ENLITISA (SHANGHAI) PHARMACEUTICAL CO., LTD., priority 2019, published 2023)",
  "experiment": "general procedure: Fmoc solid-phase peptide synthesis; Fmoc-Lys(Boc)-Wang resin; Fmoc-Lys(fmoc)-Wang resin (GL Biochem); TBTU/DIPEA",
  "conditions": "whole synthesis, scale of the general procedure 9.15 g resin, 9.9 g resin, acetate (ammonium acetate wash, 0.1% HAc elution)",
  "key": {"[1]": {"conditions": "HPLC, UV at 220 nm (Shimadzu LCMS-8050 / LC-20, ZORBAX Eclipse SB-C18)"}},
  "data": [
    {"substance": "(Ala-Lys-Pro-Ser-Tyr-Hyp-Hyp-Thr-DOPA-Lys)2 (SEQ ID No: 11)", "values": [
      {"measurement": "final HPLC purity", "setting": "[1]", "value": 98, "unit": "%"},
      {"measurement": "crude HPLC purity", "setting": "UV 220 nm", "value": 60.345, "unit": "%"}
    ]},
    {"substance": "(Ala-Lys-Pro-Ser-Tyr-Hyp-Hyp-Thr-DOPA-Lys)2-Lys", "values": [
      {"measurement": "crude HPLC purity", "setting": "[1]", "value": 68.985, "unit": "%"}
    ]}
  ]
}
